In all, about 31,000 sequences went through this assay and about 1,400 (4.5%) were called active.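 How the source made its calls: active means median seed-adjusted z-score above 1 or below -1; inactive means the rest.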 The list shows a part of the results.
Assay: Novel Modifiers of Survival Motor Neuron (SMN) Protein: Gene Identification via Genome-wide siRNA Screen;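 further: luminescence tracks full-length SMN protein made from the SMN2 reporter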
Conditions: HEK293T SMN2-luciferase reporter, siRNA knockdown, 72 h; actives lie on both sides
How it was run: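 HEK293T cells stably expressing an SMN2 splicing/cDNA-luciferase reporter were reverse-transfected with a druggable-genome siRNA library and read by luminescence at 72 hours; hits defined by MAD score above 1.0 or below -1.0.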

Sequence	median seed-adjusted z-score
AGAUGAACGAUGACCACAATT against PPFIA3	inactive: -0.0669
CACCAAAGUUUGACUUAUUTT against LARP4	inactive: -0.701
GAAUUCAUACGCAAGAAAATT against ZNF302	inactive: 0.498
ACUUAUUCGGGAUAAAGUATT against ELAVL1	inactive: 0.316
GCUCGAACCUUGUUCAACATT against ZNF780B	inactive: -0.332
GGAAAGAUGCGACCUAGAATT against MEFV	inactive: 0
GCAUCACGUGUAUUUAUAATT against CHSY1	inactive: 0.247
CACGCAGAGUUACCGAAAATT against SPEN	active: -1.69
CCUACUUUCUCACUAUCCATT against HTR2B	inactive: -0.325
CGACAACAGGGCUCUAUUATT against RBM5	inactive: -0.289
GCUUUGUCCCUAAUUUCCATT against GPX3	inactive: 0.193
GACUGCAGUUGGUCUUUCATT against DIABLO	inactive: 0.913
GAACAACCCUAACCCAAGATT against ITGAM	active: -1.56
GGCCGUGCAGAACAAAGUATT against RFX5	inactive: 0.432
GAAUCGACGUAAUUCCAGUTT against N-PAC	inactive: 0.0542
AAACCACAAGCAUCGAGAATT against DMBX1	inactive: -0.207
CCUUAUACAUGUAACAUAUTT against ZNF454	inactive: 0
GCAACAGAAUCGAGCAAGATT against MFRP	inactive: -0.209
GGCUUACACGGACAUCAAATT against GSK3A	inactive: 0.248
GGAUAGCUGUGGUUGCAUUTT against THNSL1	inactive: -0.176
AGUCCAACGAGAAAGCUGATT against SAA4	inactive: 0.104
CCACCAACCUUUAAGCAAATT against EREG	inactive: 0.29

Sequence	median seed-adjusted z-score
CAGACUACCUUAACGAUUUTT against IKZF5	inactive: 0.399
CAAGGAUACCUACAAAUUATT against BHLHB3	inactive: -0.00972
GUAUCGUUGGUGGAUAUGATT against LNX2	inactive: 0
GCAGCUACCAAAACGUCUATT against ENDOG	inactive: -0.336
UGAGUACUGUAGUACAGAATT against KLRB1	inactive: -0.44
UCAUCUACGGCAACACGUUTT against GNAT1	inactive: -0.188
GUACCUCUACUAGAUCUAATT against THNSL1	inactive: -0.176
CAGUUACUAUAAAAACCGATT against ZNF711	inactive: 0.254
GGUUGGUACGUGUCAACGATT against SLC27A4	inactive: 0.119
CCUGCCCAAUGUGACCUUUTT against MRC2	active: -1.34
GGAAUAUAAUAAGCGAAGATT against TAOK1	inactive: -0.0533
CGAUGGUAUUGACUAAGUUTT against HSPA1L	active: -1.27
CGAGAACGCAUGCUAAAAATT against ZNF556	inactive: 0
GCACCUCAUUUGCCGAAUATT against DNMT1	inactive: 0.185
CGCAUUGCUUACUUACAAATT against PCDHA10	inactive: 0.0404
AAACUUCGCUUCCGAAAAATT against ZNHIT1	inactive: -0.497
CGGUGGUGAAUGAAAGUCATT against FKBP14	inactive: -0.455
AGGUCCGCGUUAAAUGCAATT against UBL5	inactive: -0.706
GACCUGGUCUAAAACGAAATT against BLVRA	inactive: 0.212
CUACCUCCAUUGACCCUGATT against PEX5	inactive: -0.0414
CAAUCCAGAGUAACACUAUTT against PCK2	inactive: 0.318
GAGUGUUAGUGAGAAGAUATT against PEX12	inactive: -0.129

Sequence	median seed-adjusted z-score
GAACCAUGCAAGAUAUUGUTT against PCGF3	inactive: 0.876
CAAGUGGGCUGAGUACCAUTT against PHPT1	active: 1.27
GCUGUACCGUGGGCUUCUATT against ATG4D	inactive: -0.216
CCAGGUAUUUUUAUAACAATT against TFPI	inactive: -0.0076
CACCGACACCAGACCAGAATT against ZP3	inactive: 0.495
GCAUAUGGACAAACCGGAATT against KIF3A	inactive: 0.119
UCCCGCUUCCUUAUCCUUATT against CDK5R2	inactive: -0.0965
CAAACUACGGGAACUUGAATT against IRX2	inactive: -0.409
GCAGAGUUUCGUACAAGGATT against KPNA6	active: -1.54
AGAACGCGCCCGAGAAGAATT against FOXC2	inactive: -0.792
AAACGAUGUUGAUGUCCAATT against ATP6V1E1	inactive: -0.312
AGUGCACUCUGGACCCAGATT against ACSBG1	inactive: 0.113
GAUCCUCUCUGAAUCGGCATT against FAM48A	inactive: -0.506
GCCCAUAUACAUUCUGCAATT against GUCY1B3	inactive: -0.19
GGUCCAAGAUCAAACCCGATT against GLI3	inactive: 0.143
GGAUGAAGGUUUUGGUAAATT against ZNF165	inactive: 0.602
GGACAGGAGCGGUAUCACATT against RAB5C	inactive: -0.529
CAAUUACGAAUAGAAUUGATT against WEE1	active: -4.05
GGCUUUUAAGACUAAGGAATT against TRIM69	inactive: 0.214
CCUUUAGUGAGGCAAAGAATT against ZBTB40	inactive: 0.187
CGCUGAAGUUUGUCCCUAATT against SEPX1	inactive: -0.0545
CUUCCACUCAAGAAUCGUATT against BACH1	inactive: -0.404

3 entries drawn at random from the list so far, as already listed:
Sequence	median seed-adjusted z-score
GCACCUCAUUUGCCGAAUATT against DNMT1	inactive: 0.185
GAUCCUCUCUGAAUCGGCATT against FAM48A	inactive: -0.506
CAAGUGGGCUGAGUACCAUTT against PHPT1	active: 1.27

Later entries

Sequence	median seed-adjusted z-score
GGAAAAACCAACCAAGUUATT against RUFY1	inactive: 0.119
GGAGCUUCCCUAUAGUGAATT against HDAC3	inactive: 0.579
GCCUAUUAGUAAUGCUGAUTT against CTDSPL	inactive: 0.43
AAAUCCGUCCUGUUCCAUATT against LARGE	inactive: -0.436
CGCCUUUAUGGACCACAUATT against NR2F2	inactive: 0.129
GCCUUUACAAGAUAGAGUUTT against ZKSCAN3	inactive: 0
CCAAUACAAUCGGAUCUCUTT against NRIP2	inactive: 0.415
CACUAACUGUUUCGAAUGATT against CAPZA1	inactive: -0.0237
CCCGUUCUACUAUGACUAUTT against FXYD2	inactive: -0.383
GCUCCUUUAGGUUAUGAUATT against ASH2L	inactive: -0.464
CCUUCAAGGUGUGCAAGUATT against ZNF420	inactive: -0.5
CGUUUGUACGGAAUGAUAATT against PPP2R3B	inactive: 0
GCAGGACGUAUGCAAGACATT against CHST5	inactive: 0.0149
GAUCGUUACUCGCAUCAAUTT against MYO1D	inactive: -0.201
AGGUCAGGGUUACAGCUUUTT against MPP2	inactive: 0.0496
GGUUCAUUGCAACACCCAUTT against HSD17B8	inactive: 0.411
CCAAGGAUAUUUCAGCUAATT against USP37	inactive: 0.0907
CCACGAAGUUUCGAACGGATT against PTPN14	inactive: 0
CCAGCGCAACAAAGGAAAATT against HMX1	active: 1.3
GAUUGAUGCUGAUGUAACATT against DLD	inactive: 0.377
AGACCAUCCACAACGAUUATT against CA6	inactive: 0.349
CGGACUCACCAUAUCCUUUTT against HIPK2	inactive: 0.156

As a short view, part of the list above:
Sequence	median seed-adjusted z-score
GAAUCGACGUAAUUCCAGUTT against N-PAC	inactive: 0.0542
AAACCACAAGCAUCGAGAATT against DMBX1	inactive: -0.207
CCUUAUACAUGUAACAUAUTT against ZNF454	inactive: 0

Following part:

Sequence	median seed-adjusted z-score
UGGUGAAAAUUACAUCUGATT against CIP29	active: -1.18
CGUCAUCACCCUCAACUAUTT against NLGN3	inactive: -0.0279
CGAUGUGGGCUGCAACAAATT against PURB	inactive: 0
GCUUCAAUGAGACAACCCUTT against IP6K2	inactive: -0.193
CCAUCGAGUUUGUUACCCATT against GRIK2	inactive: 0.00242
GCACCUUCCCAACCAUCAATT against GPX2	inactive: -0.21
GUAGUACUCUAGAUCGAAUTT against SOS2	inactive: 0.3
CAACAUACCUAGACCUCCATT against LPCAT2	inactive: 0
AAGUGUCAGUGAGAAUGAATT against CACNG2	inactive: 0.00759
CGACUCUGAUCGUUAUGAUTT against PFKFB2	inactive: 0.311
GCAGCUACCUUUAGAUUCATT against MTHFD1	inactive: 0.554
CAGUAUGUGCUAUAAUAUUTT against FZD4	inactive: 0.0695
ACAUAAAGGUGAAAAGCGATT against NEFH	inactive: 0.688
CCAAGAUGAUUGUCCCAAATT against AGTR1	inactive: 0.106
ACAAUGCCUUUGACCAGUATT against CAPZB	inactive: -0.106
GUCCGAGUGUGGUUCUGUATT against POU5F1	inactive: 0.0495
GCAACUGCUUUAAACCCGATT against SMG1	inactive: -0.106
GCCUGGUAUUUUGAAAUCATT against ASH2L	inactive: -0.464
UGUCCGUGCUUGCCUCGUATT against ATP13A1	inactive: 0.488
GCCCAAAACUUGCUAAACATT against ZNF165	inactive: 0.602

From PubChem BioAssay AID1347426 (Functional Genomics Laboratory (NCATS/FGL), 2020)
